# Assay results from PubChem BioAssay AID1347423 (Functional Genomics Laboratory (NCATS/FGL), 2020).
# Screen size: about 52,000 sequences; about 210 (0.4%) were called active.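 The calls were made as follows: active = gene whose silencing raises cell survival under the drug, median off-target-corrected z-score across its silencing RNAs 2 or more; inactive = the rest.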 Some of the results follow.
# Test: Resistance to Poly (ADP-Ribose) Polymerase inhibitor: Gene Identification via Genome-wide siRNA Screen
# Settings: mouse BRCA2 R2336H ES cells, olaparib, CellTiter-Glo viability; active compounds read high
# Method in brief: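 Genome-wide siRNA screen (3 siRNAs/gene, 20 nM) in mouse ES cells carrying hypomorphic BRCA2 R2336H; olaparib 500 nM added 48 h post-transfection, CellTiter-Glo viability 72 h later. Normalized to plate-median negative control; MAD z-scores, gene median, seed-adjusted.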
row,Sequence,z-score
1,CCUCAAAGAUUAAUUCCGGTT against Centb2,inactive: 0.721
2,GGGAAUGUGGCUUCACUUUTT against 2210409E12Rik,inactive: -0.857
3,GGAGAUUGUCAACAAAUGATT against Slc25a16,inactive: 1.61
4,GCUACUCCUUAGAACACGGTT against Spry1,inactive: -0.802
5,GGAUGUUCUUGCUCAUGUGTT against AA536717,inactive: -0.0812
6,GGCAAGAGUGCCUCUGAAATT against Ccnb1,inactive: -2.46
7,GCAUUAUAAAAAGGUUCCGTT against Atp2b1,inactive: 0.106
8,GCUGGGACAGAAAGAACAATT against Ndufa4,inactive: -0.979
9,CCACGAUAUUCCAGGUCUGTT against AF067063,inactive: 0.766
10,CGACUGUUACGUUGUUUGGTT against Srp9,inactive: 0.476
11,GCAAAAGGUGCUCAUUUAATT against Phf14,inactive: -0.24
12,GGAAGAAAGAAUUGAACUUTT against Add3,inactive: 0.511
13,ACCCUUCCCUAUUCGUACATT against 1700016K19Rik,inactive: 0.509
14,GCUUUUGUAGUGACCAGCATT against A730045E13Rik,inactive: 0.437
15,GGUCUCAAUCAGAGUUACATT against D430030K24Rik,active: 1.08
16,GGCAGUAUGAGAGGUAUUUTT against Entpd7,inactive: -1.74
17,GAGAGCAGAGCUUGAGACATT against Angptl6,inactive: 1.49
18,GUGUACGAGCCUACCGUUATT against 2310016M24Rik,inactive: 0.0609
19,CCCAAUACCAAGUUAUUCCTT against Ms4a8a,inactive: 1.63
20,GCGACAACUUAAAGACCGGTT against 2210404G23Rik,inactive: 1.65
21,CGCAUGAUAACUAGAGAAUTT against Slitrk3,inactive: -0.274
22,GGACAUCAGUGUGUACAUUTT against 1700010I14Rik,inactive: -0.182
23,GCGAAAUGGACAGAUGUGATT against 2610001J05Rik,inactive: -0.325
24,GCUAUCCCUUUAUGUAACATT against Prlpn,inactive: -0.268
25,CGUGGUCAAUAAUGUAAUATT against Stard4,inactive: 0.781
26,GGUUUGCUUUCAUGACUAUTT against Cyp3a41,inactive: -0.483

row,Sequence,z-score
1,CCCAAACCUGACCUAUGCATT against Pgm5,inactive: 0.272
2,GGAAAUCUUCAUGAUCAGUTT against 1700007K09Rik,inactive: 0.128
3,GGGACCUCAAAGUUGUCUATT against Ap1s1,inactive: -1.22
4,GGACCAUACUGUUUGAUUATT against Msl31,inactive: -0.0378
5,GGAUGUCUGGAAUGAAACATT against 9130214H05Rik,inactive: -3.04
6,GGAGAUUUUCAUGUUAUCATT against Eral1,inactive: 1.09
7,GGUUCUUGAGCCUAAACAATT against Cd22,inactive: 1.27
8,GGUCCCAGCUGUUAUAAGUTT against B130055A05Rik,inactive: -0.00533
9,GGAGAAUGAAGAGUUAGACTT against Hirip5,inactive: -0.573
10,GGUUGUGUUCAAGAAAGGGTT against Gcgr,inactive: -0.451
11,GGAAUUUUACCUUUUGGAUTT against Smbp,inactive: 0.645
12,GGUGAGCUUGGUUUCUAAATT against Gdf15,inactive: 1.48
13,CCGGAAAUUUUCUUUGCCCTT against Sec23ip,inactive: 0.0367
14,GGAGCUCUAAAAUUGACUUTT against Zfp92,inactive: 0.916
15,GGCAGGAUCACAGUCCUAGTT against Pcp4,inactive: 0.415
16,CGUGCAGUGUGCUUCACAATT against Smarcad1,inactive: -0.181
17,CGACAUUGCCUGGAACUUUTT against Gpx1,inactive: 0.288
18,GGCCAUUGUGAAAUCCAGCTT against Chrnb3,inactive: -0.251
19,GCCCAUCUACUCACGGUACTT against 5033413H12Rik,inactive: 0.0506
20,GGCUGUGGACUUUUGUAAUTT against 3110002H16Rik,inactive: 0.704
21,GGUCAUAUGGAGAACGAACTT against Snn,inactive: -0.352
22,GGAUAAGAUGGAAAUCCGUTT against Xpo6,inactive: 1.63
23,GGAUUUCAAACACGUCUUUTT against Accn5,inactive: -0.766
24,GGGUAUGAUAUGUUAAUGATT against 2410091C18Rik,inactive: 0.392
25,GGGAGCAGAAGCGAAAAGATT against Espn,inactive: -0.0669
26,CCUUUGAAAAGUUACCUCCTT against Klk16,inactive: 0.0625

row,Sequence,z-score
1,GGCUAUGGUGAAAUAAACGTT against 1110001M19Rik,inactive: 1.29
2,CGACGUAGAAACAGUGCAGTT against C730048E16Rik,inactive: -0.128
3,GGAAAUACAGAGGGCGAAATT against Espn,inactive: 1.25
4,GCAGUUACUUAUCAUCUGGTT against AI842396,inactive: 0.205
5,GCAGAUGUCUCAUUUCCGUTT against Car2,inactive: 1.73
6,CCUCCUGACCUUAAUCUUGTT against P2rx1,inactive: 0.352
7,CGGGCACUAGAACAAGAACTT against Arvcf,inactive: 0.602
8,GGCAGAGCCUAUGAUCUAUTT against Gprin1,inactive: 0.16
9,CCAAUCCUCAACCUUGAAUTT against Ddx19,inactive: -1.07
10,GGUUCUGAAAGAGUGUUAGTT against Htatsf1,inactive: -1.93
11,GGGCAAAGUACUCUACACCTT against Fgd5,inactive: -0.175
12,GGGCUCGACUCUUAAUUGUTT against Mapkapk5,inactive: 0.174
13,GGUCCAGACAUUUGGAUACTT against Cav2,inactive: -1.21
14,GCAUAUCCUCUUUCGAAGGTT against Adra2c,inactive: -0.0308
15,GCAUUUGGAAACGAUCAAGTT against Chst4,inactive: -0.748
16,GGGAGGUGGAAAGCUCUCUTT against Olfr1256,inactive: -0.191
17,AUUGGUUUUCUGGUGUUAATT against Olfr553,inactive: -0.209
18,GGUGUCCUUUCAAGUUGAUTT against C530005A01Rik,inactive: -0.63
19,CCUUUCACAUUCAUGUGUATT against Rgs19,inactive: 0.852
20,GGCUUUAAGAAUGUAUCGCTT against Dpp3,inactive: 2.55
21,GGCUCUGAAUUAACUCCAGTT against Stk23,inactive: -0.367
22,GCUACUUUGUCCCUCUUACTT against Olfr33,inactive: -0.926
23,GGACUGAACAGUAUUAAGUTT against B230339H12Rik,inactive: 0.0968
24,GGAUUACAGGAAGUUCUGGTT against AW049765,inactive: -0.628
25,GGGAGCUUCUUUUUUCCAATT against Ctf1,inactive: 0.162
26,CCUAUGCAUCCCUGACUACTT against 1110001A23Rik,inactive: 1.29

# Part of the list above, as tab-separated lines.
row	Sequence	z-score
21	GGCUCUGAAUUAACUCCAGTT against Stk23	inactive: -0.367
22	GCUACUUUGUCCCUCUUACTT against Olfr33	inactive: -0.926
23	GGACUGAACAGUAUUAAGUTT against B230339H12Rik	inactive: 0.0968

# Looked up above:
# GGCUCUGAAUUAACUCCAGTT against Stk23 – z-score: inactive: -0.367
# CGACGUAGAAACAGUGCAGTT against C730048E16Rik – z-score: inactive: -0.128
# CCUUUCACAUUCAUGUGUATT against Rgs19 – z-score: inactive: 0.852
# GGUUCUGAAAGAGUGUUAGTT against Htatsf1 – z-score: inactive: -1.93

# Going on with the list:

row,Sequence,z-score
1,GCCGCCCAGACAGAUAAACTT against Bag3,inactive: 1.89
2,GGCAGGAAAGAAAAACGUATT against 4933402J07,inactive: 1.12
3,GCUAAACCUACAAUUGAUUTT against BC018601,inactive: -0.462
4,CCCGUAUUUGGUGGUCUGCTT against Hyal1,inactive: -0.539
5,UCCACUUCACUAAUCCUGUTT against Gm1961,inactive: -0.559
6,GCUCUUAAGGUCUUUUAAATT against Crkl,inactive: -0.205
7,GGAGUCUUGUCAUCUCCAUTT against Nup35,inactive: 0.104
8,GGUCACAGCCUACAAUCGATT against Sgca,inactive: 1.01
9,GCUCGCCAGAAAAUUGACCTT against Pmm1,inactive: 2.15
10,GGUCCUACAGGGAAUACCGTT against Habp4,inactive: 0.035
11,GGGAGUAGACAGUUAGAAGTT against 2900092C05Rik,inactive: -0.834
12,GCACUAAAGAAUCUUUACATT against BC023818,inactive: 0.0237
13,GGAUUCUCCUUUACCUUUGTT against B930095G15Rik,inactive: -0.951
14,CCAGAUUAAGUUUAUAGCCTT against Uros,inactive: 0.272
15,GGUCAAAUAAAGCUGUGGUTT against Uba52,inactive: -2.42
16,GCGGAAUCAUCAGAAACAATT against Acsl6,inactive: -0.249
17,CGGUUCAACACAACAACACTT against C230078M14,inactive: -0.778
18,GGUUGGAUUCUCUUUGUCATT against Rbm8,inactive: -3.53
19,CCCUCUACAAUAUUCUCUATT against Olfr1118,inactive: -0.024
20,GGAGGAGAUGAAUGCUCUGTT against Krt1-17,inactive: 0.854
21,GGAAUUUAAGGAAGCUGCUTT against Homer1,inactive: -1.2
22,GGAUGAAAUUAACUCUGAATT against Adprt1,active: 2.49
23,GCUAAAGAAAAGUGGAGACTT against 2610029G23Rik,inactive: -0.314
24,CCUUGUUCCCACUUUUGUATT against Cirbp,inactive: -0.223
25,GGACCGCGUUCAAGAAGAATT against Cyp2c37,inactive: -0.469
